Our source for the step yield values is patent US4497802A (Eli Lilly and Company, priority 1983, dated 1985).

The nature of the data set: peptide synthesis. To be noted: late stage modification step.

“N-[N-(tert-butoxycarbonyl)-L-phenylalanyl]-A35512B” yielded a step yield of 67% yield.
